{"source": "PubChem BioAssay AID504467", "about": "(National Center for Advancing Translational Sciences (NCATS), 2011)", "note": "The whole screen tested about 330,000 compounds, of which about 7,700 (2.3%) were called active. The inconclusive results got no clear call from the source; some entries with a clear call stand among them for comparison. Calls follow the shape of the dose curve; as a rule, active = well fitted inhibition curve with a large enough effect; inconclusive = small, poorly fitted or top-dose-only effect, or effect the other way; inactive = flat fitted curve, though single readings scatter. Potencies beside an inconclusive call are fits to weak or partial responses and may not hold up. % is scaled to controls: 0 for no effect and ±100 for the full control effect; potency is read from the fitted curve at half-maximal effect."}
{"assay": "qHTS screen for small molecules that inhibit ELG1-dependent DNA repair in human embryonic kidney (HEK293T) cells expressing luciferase-tagged ELG1; also: nearly all actives have a fitted effect of over 55% in size", "conditions": "HEK293T ELG1-luciferase reporter, luminescence, 16 h, DNA damage induced by 5-fluorouridine; activity change, negative = inhibition: at 46.1 µM (top of the series)", "outline": "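DMSO vehicle served as the neutral condition. Each well held 2,000 cells given 5-fluorouridine plus compound; after 16 hr at 37 °C/5% CO2, ONE-Glo was added and luciferase measured 30 min later.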"}
{"smiles": "Cc1cccc(NS(=O)(=O)c2ccc(C)c(NS(=O)(=O)c3cccs3)c2)c1", "activity change, negative = inhibition": "inactive: 8.53%"}
{"smiles": "O=C(N/N=C/c1ccc[nH]1)c1sc2ccccc2c1Cl", "Potency": "inconclusive: 29.1 µM [activator, single point]"}
{"smiles": "COc1cc(Cl)ccc1NC(=S)N(CCCN1CCOCC1)Cc1cn(C)c2ccccc12", "Potency": "inconclusive: 20.6 µM [inhibitor, single point]"}
{"smiles": "Cc1cc(C(=O)NCc2ccccc2F)cs1", "Potency": "inconclusive: 23.1 µM [activator, partial curve, poor fit]"}
{"smiles": "CC(C)(C)NC(=O)NC(=O)C[n+]1ccc(Cc2ccc([N+](=O)[O-])cc2)cc1", "activity change, negative = inhibition": "inactive: -29%"}
{"smiles": "CCCc1nc(SCC(=O)N2CCOCC2)c2c(C)c(C)sc2n1", "Potency": "inconclusive: 29.1 µM [inhibitor, partial curve, poor fit]"}
{"smiles": "O=C(CNC(=O)c1ccc(F)cc1)c1ccc(Cl)cc1", "Potency": "inconclusive: 13 µM [activator, partial curve]"}
{"smiles": "COc1cccc(COC(=O)Nc2ccccc2F)c1", "Potency": "inconclusive: 14.6 µM [activator, partial curve]"}
{"smiles": "O=C(COC(=O)c1ccc(O)cc1O)Nc1ncc(Cl)cc1Cl", "activity change, negative = inhibition": "inactive: -1.17%"}
{"smiles": "CSc1ccc(CN(C)Cc2nc3cc(C(F)(F)F)ccc3c(=O)[nH]2)cc1", "activity change, negative = inhibition": "inactive: -10.8%"}
{"smiles": "CCOC(=O)c1c(NC(=O)CSc2nnnn2-c2ccc3c(c2)OCCO3)sc(C)c1C", "Potency": "inconclusive: 23.1 µM [inhibitor, single point]"}
{"smiles": "O=c1c2cc(NC(=S)NC3CCCCC3)ccc2nc2n1CCCCC2", "Potency": "inconclusive: 16.4 µM [inhibitor, single point]"}
{"smiles": "Cc1ccc(C)c(NC(=O)c2cc3ccccn3n2)c1", "Potency": "inconclusive: 11.6 µM [activator, partial curve]"}
{"smiles": "COc1cc(C(=O)NCC(=O)N/N=C/c2ccccn2)cc(OC)c1OC", "activity change, negative = inhibition": "inactive: 7.46%"}
{"smiles": "Cc1ccccc1OCC(=O)NCCNC(=O)c1ccncc1", "Potency": "inconclusive: 29.1 µM [inhibitor, single point]"}
{"smiles": "CCOC(=O)CNC(=O)CSc1nc(C)cc(C)c1C#N", "Potency": "inconclusive: 18.4 µM [activator, partial curve, poor fit]"}
{"smiles": "COc1ccc(S(=O)(=O)N2CCCCCC2)cc1C(=O)NCCc1ccccc1", "Potency": "inconclusive: 16.4 µM [inhibitor, partial curve]"}
{"smiles": "CN(C)C(=S)NC(=O)C12CC3CC(C)(CC(C)(C3)C1)C2", "activity change, negative = inhibition": "inactive: 5.38%"}
{"smiles": "Cc1cccc(NC(=O)c2ccc([N+](=O)[O-])cc2Cl)n1", "activity change, negative = inhibition": "inactive: 6.15%"}
{"smiles": "Clc1ccc(-c2cc(CSc3ccccc3)on2)cc1", "Potency": "inconclusive: 10 µM [activator, partial curve]"}
{"smiles": "O=C(Nc1ccc(Cl)cc1)C(Cl)C(=O)c1ccccc1", "note": "(configuration not stated)", "Potency": "inconclusive: 16.4 µM [activator, partial curve, poor fit]"}
{"smiles": "C=CCn1c(C)cc(C(=O)COC(=O)CNC(=O)c2ccccc2)c1C", "Potency": "inconclusive: 14.6 µM [activator, partial curve]"}
{"smiles": "COC(=O)CSc1ccc2nnc(CCNS(=O)(=O)c3ccccc3)n2n1", "activity change, negative = inhibition": "inactive: -6.52%"}
{"smiles": "Fc1cccc(CN(C2=NCCN2)c2c(Cl)cccc2Cl)c1", "Potency": "inconclusive: 31.6 µM [activator, single point]"}
{"smiles": "O=C(CSc1nnc(-c2ccccc2)n1Cc1ccco1)Nc1ccc2c(c1)OCCO2", "Potency": "inconclusive: 20 µM [inhibitor, single point]"}
{"smiles": "O=C(c1cccs1)N(Cc1ccccn1)Cc1ccco1", "activity change, negative = inhibition": "inactive: 1.4%"}
{"smiles": "CC(=O)N/C(=C\\c1ccccc1)C(=O)NCc1ccc2c(c1)OCO2", "Potency": "inconclusive: 18.3 µM [activator, partial curve, poor fit]"}
{"smiles": "O=C(N=Nc1c(O)n(Cc2ccccc2)c2ccccc12)c1ccc(O)cc1", "Potency": "inconclusive: 6.51 µM [activator, single point]"}
{"smiles": "COc1cccc(Nc2nnc(SCC(=O)Nc3sccc3C(N)=O)s2)c1", "Potency": "active: 14.6 µM"}
{"smiles": "Cc1ccc(CN2C(=O)CNC2=S)cc1", "activity change, negative = inhibition": "inactive: -4.2%"}
{"smiles": "COc1ccc(C(=O)NCC(=O)N=Nc2c(O)n(Cc3ccccc3)c3ccccc23)cc1OC", "Potency": "inconclusive: 23.1 µM [inhibitor, partial curve, poor fit]"}
{"smiles": "Cc1cnc(NC(=O)COc2ccccc2Cl)s1", "Potency": "inconclusive: 0.231 µM [activator, partial curve]"}
{"smiles": "CCN1C(=O)[C@H]2[C@@H](c3ccc(SC4CCCCC4)cc3)N3CCCC[C@@]3(C(=O)OC)[C@H]2C1=O", "activity change, negative = inhibition": "inactive: 13.6%"}
{"smiles": "COc1ccc(/C(N)=N/OC(=O)CSc2ccccc2)cc1", "Potency": "inconclusive: 14.6 µM [activator, partial curve]"}
{"smiles": "Cc1cccc(N2CCN(C(=O)[C@H](C)N3C(=O)C4CC=CCC4C3=O)CC2)c1C", "note": "(some centres not stated)", "activity change, negative = inhibition": "inactive: -25.8%"}
{"smiles": "Cn1c(SCC(=O)NC2CCS(=O)(=O)C2)nc2ccccc21", "note": "(configuration not stated)", "activity change, negative = inhibition": "inactive: 14.5%"}
{"smiles": "CC(=O)N1CCN(Cc2nc3cc([N+](=O)[O-])ccc3n2C)CC1", "activity change, negative = inhibition": "inactive: 3.62%"}
{"smiles": "O=C1/C(=C/c2ccc(F)c(F)c2)CSc2sccc21", "Potency": "inconclusive: 29.1 µM [inhibitor, single point]"}
{"smiles": "COc1ccc(-c2cc(=O)c3cc(O)ccc3o2)cc1", "Potency": "inconclusive: 4.11 µM [activator, partial curve]"}
{"smiles": "CCOC(=O)c1oc2cccc(O)c2c1C", "Potency": "inconclusive: 14.6 µM [activator, partial curve]"}
{"smiles": "Cc1ccn2cc(CCNC(=O)COc3ccccc3)nc2c1", "Potency": "inconclusive: 23.1 µM [activator, partial curve, poor fit]"}
{"smiles": "CCOc1ccccc1C(=O)N/N=C/c1cccc2cccnc12", "Potency": "inconclusive: 8.2 µM [inhibitor, partial curve, poor fit]"}
{"smiles": "O=C(Cn1nc(-c2ccccc2)nc1-c1ccccc1)OC1CCCCC1", "Potency": "inconclusive: 29.1 µM [inhibitor, single point]"}
{"smiles": "Cc1ccc(NC(=O)CSc2nc(C)c(C)c(C)n2)c([N+](=O)[O-])c1", "activity change, negative = inhibition": "inactive: -1.44%"}
{"smiles": "COc1cccc(C2=NOC(C(=O)NCc3cccs3)C2)c1", "note": "(configuration not stated)", "Potency": "inconclusive: 23.1 µM [activator, single point]"}
{"smiles": "O=C(NCCc1ccccc1)c1ccc(NCC2CCCO2)c([N+](=O)[O-])c1", "note": "(configuration not stated)", "Potency": "inconclusive: 18.3 µM [activator, partial curve, poor fit]"}
{"smiles": "Cc1cc([N+](=O)[O-])nn1Cc1ccc(C(=O)N/N=C/c2ccccc2)cc1", "Potency": "inconclusive: 29.1 µM [activator, partial curve, poor fit]"}
{"smiles": "Cc1ccc(C(=O)NC2CC(C)(C)NC(C)(C)C2)cc1S(=O)(=O)N1CCCCC1", "activity change, negative = inhibition": "inactive: 2.17%"}
{"smiles": "C=CCOn1c(=O)c(-c2ccc(OCC)cc2)[n+]([O-])c2ccccc21", "activity change, negative = inhibition": "inactive: 12.5%"}
{"smiles": "C=CCNc1nc(N)c(C(=C(C#N)C#N)c2ccc(Br)cc2)s1", "Potency": "active: 18.4 µM"}
{"smiles": "Cc1ccc(C(=O)NCC(=O)N2CCCCCC2)cc1", "Potency": "inconclusive: 16.4 µM [activator, partial curve]"}
{"smiles": "CN(C)CCN(C(=O)C1CCN(S(=O)(=O)c2cccs2)CC1)c1nc2ccccc2s1", "activity change, negative = inhibition": "inactive: 21%"}
{"smiles": "NS(=O)(=O)c1ccc(CCNC(=O)CSc2nc3ccccc3c(=O)n2CCN2CCOCC2)cc1", "activity change, negative = inhibition": "inactive: 9.75%"}
{"smiles": "CCOc1ccc(NS(=O)(=O)c2ccc(OC)c(NC(=O)c3ccc4c(c3)OCCO4)c2)cc1", "Potency": "inconclusive: 23.1 µM [inhibitor, partial curve, poor fit]"}
{"smiles": "CSc1nc2ccc(NC(=O)c3c(-c4ccccc4)noc3C)cc2s1", "Potency": "inconclusive: 29.1 µM [inhibitor, single point]"}
{"smiles": "Cc1ccc(N=C2S/C(=C\\c3cn(CC(=O)O)c4ccccc34)C(=O)N2C)cc1", "Potency": "inconclusive: 13 µM [activator, partial curve, poor fit]"}
{"smiles": "COc1ccccc1-c1cc(-c2ccccc2)nc(SCC(=O)O)c1C#N", "activity change, negative = inhibition": "inactive: 1.94%"}
{"smiles": "C/C(=N\\NC(=O)c1ccc(N(C)C)cc1)c1ccc(C)c(C)c1", "Potency": "inconclusive: 29.1 µM [activator, partial curve, poor fit]"}
{"smiles": "COc1ccccc1OCCNC(=O)c1cc(C2CC2)nc2c1cnn2C(C)C", "Potency": "active: 12.6 µM"}
{"smiles": "COc1ccc(N2CCN(S(=O)(=O)CC34CCC(CC3=O)C4(C)C)CC2)cc1", "note": "(configuration not stated)", "activity change, negative = inhibition": "inactive: -29.7%"}
{"smiles": "Cc1ccc(Nc2nc3nonc3[nH]c2=O)cc1Cl", "Potency": "inconclusive: 23.1 µM [inhibitor, single point]"}
{"smiles": "Cc1cc(N2CCN(S(=O)(=O)c3ccc(Cl)c(Cl)c3)CC2)c2ccccc2n1", "Potency": "inconclusive: 29.1 µM [inhibitor, single point]"}
{"smiles": "Cc1cc(C)c(S(=O)(=O)N2CCCC(C(=O)NCCC3=CCCCC3)C2)c(C)c1", "note": "(configuration not stated)", "Potency": "inconclusive: 25.9 µM [inhibitor, single point]"}
{"smiles": "CCOC(=O)N1CCN(C(=O)CSCc2nc(-c3ccccc3C)oc2C)CC1", "Potency": "inconclusive: 29.1 µM [inhibitor, single point]"}
{"smiles": "O=[N+]([O-])c1cc(CN2CCN(c3ccccc3)CC2)c(O)c2ncccc12", "Potency": "active: 4.61 µM"}
{"smiles": "O=C(Nc1nc(-c2ccccc2)cs1)Nc1ccc(F)cc1F", "Potency": "inconclusive: 29.1 µM [inhibitor, partial curve, poor fit]"}
{"smiles": "Cc1ccccc1CN(c1ccc(C(=O)NCCC2=CCCCC2)cc1)S(C)(=O)=O", "activity change, negative = inhibition": "inactive: -18.8%"}
{"smiles": "CC(=O)Oc1ccc(S(=O)(=O)c2ccc(OC(C)=O)cc2)cc1", "activity change, negative = inhibition": "inactive: 2.47%"}
{"smiles": "CC(=O)Nc1ccc(NS(=O)(=O)C(F)(F)F)cc1", "activity change, negative = inhibition": "inactive: 27.9%"}
{"smiles": "S=C(NC1CCCC1)N1CCOCC1", "activity change, negative = inhibition": "inactive: 6.3%"}
{"smiles": "O=S(=O)(c1ccc(F)cc1)N1CCN(c2nc(-c3cccnc3)nc3ccccc23)CC1", "Potency": "inconclusive: 10.3 µM [inhibitor, partial curve]"}
